Experimental data reported in paper PMC3546041.
No constants are given. Whether binding was seen depends on the method and setting. For some of these results: In cells and extracts the contact can be indirect. Some entries that bind do so weakly or less than the wild type. For some of these results: Tags and fused reporters may be left off the sequences shown.

Tests used:
[1] = target: GFP-fused full-length MBD2 (mammalian cells) (mouse) (UniProt Q9Z2E1); assay: co-IP; HEK293-EBNA cells co-expressing GFP- and RFP-tagged proteins; GBP-bound beads; 274 mM NaCl; Western blot with anti RFP
[2] = target: GFP-fused full-length MBD2 (mammalian cells) (mouse) (UniProt Q9Z2E1); assay: fluorescent 3-hybrid assay; C2C12 mouse cells triple transfected with GBP-laminB1, a GFP-labelled bait tethered to the nuclear lamina and an RFP-fused prey; co-localization of GFP and RFP signals in fixed cells
[3] = target: T1, RFP-fused MBD2 NH2-terminal domain (amino acids 1-152) (Sf9) (mouse) (UniProt Q9Z2E1); assay: pull-down; Cherry- or RFP-fused MBD2 constructs immobilised on RBP-sepharose beads; full-length MBD2G or MeCP2G in solution; proteins extracted with 1 M NaCl lysis buffer; PBS plus 125 mM NaCl, 0.05% NP-40; Western blot with anti GFP; only the target purified
T1 sequence: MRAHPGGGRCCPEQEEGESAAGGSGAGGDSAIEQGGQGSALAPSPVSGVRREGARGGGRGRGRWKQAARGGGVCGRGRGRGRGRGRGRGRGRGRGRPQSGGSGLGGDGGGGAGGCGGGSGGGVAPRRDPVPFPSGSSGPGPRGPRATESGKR

[4] = target: RFP-tagged full-length MBD2 (Sf9) (mouse) (UniProt Q9Z2E1); assay: pull-down; MBD2R immobilised on beads; MBD2G in solution; proteins extracted with 1 M NaCl lysis buffer; PBS plus 110 mM NaCl, 0.05% NP-40; with or without ethidium bromide 10 ug/ml; Western blot with anti GFP; only the target purified

Substance: RFP-fused full-length MBD2 (mammalian cells) (from UniProt Q9Z2E1 1-414)
- binding [1]: binds
- binding [2]: binds

Substance: GFP-tagged full-length MBD2 (Sf9) (from UniProt Q9Z2E1 1-414)
- binding [3]: binds
- binding [4]: binds
